Data on 21 compounds can be found in the supplement of paper PMC4604168 (melanoma cell lines).

This is one part of the list. Repeats are few or missing, and single values can be far off.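 The apoptosis fraction was the count of cleaved-PARP antibody-stained nuclei relative to all DNA-stained nuclei, imaged in 1,536-well plates. Screening doses were set so most cells survived, and baseline and induced cleaved-PARP levels vary greatly across cell lines.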

The test system of the test is SkMel2. Put plainly: cleaved PARP positive nuclei fraction relative to DMSO control; melanoma cells; higher = more apoptosis. Conditions: library dose: low library concentration; 72 h.
`C[C@@H](Oc1cc(-c2cnn(C3CCNCC3)c2)cnc1N)c1c(Cl)ccc(F)c1Cl` [Crizotinib] + CCCCCCCCCCCC1=C(O)C(=O)C=C(O)C1=O [Embelin] (first compound 0.2 µM, partner dose 1.2 µM): the “cleaved PARP positive nuclei fraction” value came to 90%.

Regarding `Nc1nc(F)nc2c1ncn2[C@@H]1O[C@H](CO)[C@@H](O)[C@@H]1O` [fludarabine] + Cc1cc(N2CCOCC2)cc2[nH]c(-c3c(NC[C@@H](O)c4cccc(Cl)c4)cc[nH]c3=O)nc12 [BMS536924] (first compound 0.2 µM, partner dose 0.2 µM), the “cleaved PARP positive nuclei fraction” value was found to be 318%.

With `Cc1cc(Nc2cc(N3CCN(C)CC3)nc(/C=C/c3ccccc3)n2)n[nH]1` + COc1ccc(COc2ccc(Cc3cnc(N)nc3N)cc2OC)cc1 [GW2580] (first compound 0.04 µM, partner dose 1 µM), the “cleaved PARP positive nuclei fraction” value came to 102%.

In the case of `CNC(=O)c1cc(Oc2ccc(NC(=O)Nc3ccc(Cl)c(C(F)(F)F)c3)cc2)ccn1` [sorafenib] + NCC(=O)Nc1ccc(-n2nc(C(F)(F)F)cc2-c2ccc3c(ccc4ccccc43)c2)cc1 [OSU03012] (first compound 0.4 µM, partner dose 1 µM), the “cleaved PARP positive nuclei fraction” value is 185%.

As to `Cc1cc(Nc2cc(N3CCN(C)CC3)nc(/C=C/c3ccccc3)n2)n[nH]1` + OCCn1cc(-c2cnc3nnn(Cc4ccc5ncccc5c4)c3n2)cn1 [PF04217903] (first compound 0.04 µM, partner dose 1 µM), the “cleaved PARP positive nuclei fraction” value amounted to 102%.

In the case of `Nc1nc(F)nc2c1ncn2[C@@H]1O[C@H](CO)[C@@H](O)[C@@H]1O` [fludarabine] + CCc1ccc(CCOc2ccc(CC3SC(=O)NC3=O)cc2)nc1 [pioglitazone] (first compound 0.2 µM, partner dose 2 µM), the “cleaved PARP positive nuclei fraction” value was 190%.

Take `CS(=O)(=O)CCNCc1ccc(-c2ccc3ncnc(Nc4ccc(OCc5cccc(F)c5)c(Cl)c4)c3c2)o1` [lapatinib] + OCCn1cc(-c2cnc3nnn(Cc4ccc5ncccc5c4)c3n2)cn1 [PF04217903] (first compound 0.8 µM, partner dose 1 µM): the “cleaved PARP positive nuclei fraction” value came out at 64.8%.

On to `CNC(=O)c1cc(Oc2ccc(NC(=O)Nc3ccc(Cl)c(C(F)(F)F)c3)cc2)ccn1` [sorafenib] + Cc1cc([N+](=O)[O-])ccc1NS(=O)(=O)c1cc(Cl)ccc1Cl [FH535] (first compound 0.4 µM, partner dose 1 µM), for which the “cleaved PARP positive nuclei fraction” value stood at 63.6%.

Turning to `CN1CCN(c2ccc3nc(-c4c(N)c5c(F)cccc5[nH]c4=O)[nH]c3c2)CC1` [Dovitinib] + COc1ccc2c(c1)CCC1C2CCC2(C)C(NCCCCCCN3C(=O)C=CC3=O)CCC12 [U73122] (first compound 0.1 µM, partner dose 0.4 µM), the “cleaved PARP positive nuclei fraction” value was determined as 68.8%.

Regarding `O=C(O)[C@@H]1[O][Sb](=[O])([O][Sb]2(=[O])[O][C@H]([C@H](O)CO)[C@H](O)[C@H](C(=O)O)[O]2)[O][C@H]([C@H](O)CO)[C@@H]1O` (stereo partly specified) [stibogluconate] + COc1cc(N2CCC(N3CCN(C)CC3)CC2)ccc1Nc1ncc(Cl)c(Nc2ccccc2S(=O)(=O)C(C)C)n1 [NVP-TAE684] (first compound 2 µM, partner dose 0.08 µM), the “cleaved PARP positive nuclei fraction” value stood at 181%.

For the compound `CCCS(=O)(=O)Nc1ccc(F)c(C(=O)c2c[nH]c3ncc(Cl)cc23)c1F` + N#Cc1c(O)c2c(-c3ccc(-c4ccccc4O)cc3)csc2[nH]c1=O [A769662] (first compound 0.08 µM, partner dose 2 µM), the “cleaved PARP positive nuclei fraction” value was 75.9%.

In the case of `CN1CCN(c2ccc3nc(-c4c(N)c5c(F)cccc5[nH]c4=O)[nH]c3c2)CC1` [Dovitinib] + Cc1cc(N2CCOCC2)cc2[nH]c(-c3c(NC[C@@H](O)c4cccc(Cl)c4)cc[nH]c3=O)nc12 [BMS536924] (first compound 0.1 µM, partner dose 0.2 µM), the “cleaved PARP positive nuclei fraction” value turned out to be 74.5%.

In the case of `C[C@@H](Oc1cc(-c2cnn(C3CCNCC3)c2)cnc1N)c1c(Cl)ccc(F)c1Cl` [Crizotinib] + COc1ccc(-c2ccc3c(N4CCOCC4)nc(N4C[C@@H](C)O[C@@H](C)C4)nc3n2)cc1CO [KU0063794] (first compound 0.2 µM, partner dose 0.02 µM), the “cleaved PARP positive nuclei fraction” value stood at 119%.

`O=C(O)[C@@H]1[O][Sb](=[O])([O][Sb]2(=[O])[O][C@H]([C@H](O)CO)[C@H](O)[C@H](C(=O)O)[O]2)[O][C@H]([C@H](O)CO)[C@@H]1O` (stereo partly specified) [stibogluconate] + O=C(O)c1ccc(-c2c[nH]c3ncc(-c4ccccc4)cc23)cc1C1CCCC1 [GSK650394] (first compound 2 µM, partner dose 0.16 µM): the “cleaved PARP positive nuclei fraction” value is 61.9%.

On to `Cn1c(=O)n(-c2ccc(C(C)(C)C#N)cc2)c2c3cc(-c4cnc5ccccc5c4)ccc3ncc21` + CCCCCCCCCCCC1=C(O)C(=O)C=C(O)C1=O [Embelin] (first compound 0.004 µM, partner dose 1.2 µM), for which the “cleaved PARP positive nuclei fraction” value came to 114%.

Consider `CN1CCN(c2ccc3nc(-c4c(N)c5c(F)cccc5[nH]c4=O)[nH]c3c2)CC1` [Dovitinib] + NCC(=O)Nc1ccc(-n2nc(C(F)(F)F)cc2-c2ccc3c(ccc4ccccc43)c2)cc1 [OSU03012] (first compound 0.1 µM, partner dose 1 µM), for which the “cleaved PARP positive nuclei fraction” value is 61.7%.

As for `C=C(c1ccc(C(=O)O)cc1)c1cc2c(cc1C)C(C)(C)CCC2(C)C` [Bexarotene] + Cc1cc([N+](=O)[O-])ccc1NS(=O)(=O)c1cc(Cl)ccc1Cl [FH535] (first compound 2 µM, partner dose 1 µM), the “cleaved PARP positive nuclei fraction” value is 180%.

Take `Cc1cc(Nc2cc(N3CCN(C)CC3)nc(/C=C/c3ccccc3)n2)n[nH]1` + COC(=O)c1sccc1S(=O)(=O)Nc1ccc(Nc2ccccc2)cc1OC [GSK0660] (first compound 0.04 µM, partner dose 1 µM): the “cleaved PARP positive nuclei fraction” value stood at 90.2%.

Regarding `CC(C)C[C@H](NC(=O)[C@H](Cc1ccccc1)NC(=O)c1cnccn1)B(O)O` [Bortezomib] + Cc1cc([N+](=O)[O-])ccc1NS(=O)(=O)c1cc(Cl)ccc1Cl [FH535] (first compound 0.001 µM, partner dose 1 µM), the “cleaved PARP positive nuclei fraction” value stood at 186%.

As to `CC(C)C[C@H](NC(=O)[C@H](Cc1ccccc1)NC(=O)c1cnccn1)B(O)O` [Bortezomib] + O=C(CCCCCCC(=O)Nc1ccccc1)NO [vorinostat] (first compound 0.001 µM, partner dose 0.08 µM), the “cleaved PARP positive nuclei fraction” value worked out at 79.3%.

Turning to `Nc1ncn([C@H]2C[C@H](O)[C@@H](CO)O2)c(=O)n1` [decitabine] + COc1ccc2c(c1)CCC1C2CCC2(C)C(NCCCCCCN3C(=O)C=CC3=O)CCC12 [U73122] (first compound 0.1 µM, partner dose 0.4 µM), the “cleaved PARP positive nuclei fraction” value stood at 221%.
